No constants are given. Whether binding was seen depends on the method and setting. In cells and extracts the contact can be indirect. Some entries that bind do so weakly or less than the wild type.

Chains of the proteins cited; added tags and fusions are not shown.
UniProt Q921F2: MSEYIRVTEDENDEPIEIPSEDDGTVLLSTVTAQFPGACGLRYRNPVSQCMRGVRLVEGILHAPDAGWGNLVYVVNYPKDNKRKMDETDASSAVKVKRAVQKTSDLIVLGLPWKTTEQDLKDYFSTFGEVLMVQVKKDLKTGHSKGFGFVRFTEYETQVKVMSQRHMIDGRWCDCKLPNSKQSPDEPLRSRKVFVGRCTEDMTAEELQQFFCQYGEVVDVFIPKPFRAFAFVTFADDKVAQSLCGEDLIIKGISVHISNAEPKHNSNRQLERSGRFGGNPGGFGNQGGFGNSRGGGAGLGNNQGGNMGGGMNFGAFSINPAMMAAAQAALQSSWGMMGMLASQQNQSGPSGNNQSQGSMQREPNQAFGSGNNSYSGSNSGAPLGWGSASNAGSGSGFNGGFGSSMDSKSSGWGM

The experiment addresses TDP43 (endogenous, mouse testis) (mouse (endogenous in testis)) (UniProt Q921F2). The experiment in a line: co-IP; endogenous IP from mouse testis lysate with anti-TDP43 antibody on Protein A Sepharose, 4 h at 4 °C; western blot. (Immunoblotting shows a protein as a band on a membrane.)

B1: NAT10 (endogenous, mouse testis) (enzyme, UniProt Q8K224 1-1024)
chain: MNRKKVDNRIRILIENGVAERQRSLFVVVGDRGKDQVVILHHMLSKATVKARPSVLWCYKKELGFSSHRKKRMRQLQKKIKSGTLNLKQDDPFELFVAATNIRYCYYNETHKILGNTFGMCVLQDFEALTPNLLARTVETVEGGGLVVILLRTMNSLKQLYTMTMDVHSRYRTEAHQDVVGRFNERFILSLASCKKCLVIDDQLDILPISSHVASIEALPPQAPDENLSPAALELLELKESLQDTQPVGVLVDCCKTLDQAKAVLKFIEGISEKTLRSTVALTAARGRGKSAALGLAIAGAVAFGYSNIFVTSPSPDNLHTLFEFVFKGFDALQYQEHLDYEIVQSLNPEFNKAVIRVNVFREHRQTIQYIHPADAVKLGQAELVVIDEAAAIPLPLVKSLLGPYLVFMASTINGYEGTGRSLSLKLIQQLRQQSAQSQVSTTAENKTTTTARLASARTLHEVSLQESIRYAPGDAVEKWLNDLLCLDCLNITRIVSGCPLPEACELYYVNRDTLFCYHKASEVFLQRLMALYVASHYKNSPNDLQMLSDAPAHHLFCLLPPVPPTQNALPEVLAVVQVCLEGEISRQSILNSLSRGKKASGDLIPWTVSEQFQDPDFGGLSGGRVVRIAVHPDYQGMGYGSRALQLLQMYYEGKFPCLEEKVLETPQEIRTVSSEAVSLLEEVITPRKDLPPLLLKLNERPAERLDYLGVSYGLTPRLLKFWKRAGFVPVYLRQTPNDLTGEHSCIMLKTLADEDEAEQGAWLAAFWKDFRRRFLALLSYQFSTFSPALSLNIIQNRNVAKSALPALGREHLEALFLPYDLKRLEMYSRNMVDYHLIMDLIPAISRLYFLNQLGDLSLSAAQSALLLGIGLQHKSVDQLEKEIELPSGQLMGLFNRIIRKVVKLFNDVQEKAIEEQMVAVKDVVMEPTMKTLSDDLDEAAKEFQEKHKKEVGKLKDMDLSQYVIRGDDEEWNEVLSKAGQNASIVSLKSDKKRKLETKQEPKQSKKLKKRDNNRKDMKLKRKK
For the molecule B1, the binding entry is reported as “binds”.

(Values after publication PMC11653668.)
